Assay results taken from PubChem BioAssay AID587 (National Center for Advancing Translational Sciences (NCATS), 2007).
Hit rate of the full screen: of about 59,000 compounds, about 35 (0.06%) were called active. This list was built around the results that the source calls inconclusive (neither active nor inactive); the mix of calls is not that of the screen. Rule as the data show it: active = max dye-equivalent concentration above about 10 nM; inconclusive = between about 1.1 nM and that limit; inactive = weaker than that.

Test: qHTS Assay for Spectroscopic Profiling in Texas Red Spectral Region
Conditions: Compound fluorescence, Texas Red channel, 547/618 nm; active compounds read high
Summary of the method: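 Spectral interference profiling: each compound concentration's relative fluorescence, read with a 547 nm excitation and 618 nm emission filter pair, was normalized to a per-plate Texas Red standard curve.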

Compound	max dye-equivalent concentration
CCN(CC)CCOC(=O)c1c(C)oc2ccc(OC)cc12	inconclusive: 1.4 nM
Cn1cc(-c2nc3cnc(Oc4ccccc4)nc3n(C)c2=O)c2ccccc21	inactive
c1ccc2c(c1)CCCC2NC1=NCCC1 (centres undefined)	inconclusive: 1.8 nM
CCOc1cc2[nH]c(=S)n(CCCN3CCN(C)CC3)c(=O)c2cc1OCC	inconclusive: 1.3 nM
COc1ccc2[nH]c(=O)c(CN(C(=O)C3CCCO3)c3cccc(C)c3)cc2c1 (centres undefined)	inconclusive: 1.2 nM
CCOC(=O)c1c(N)sc2c(NC(C)=O)cccc12	inconclusive: 1.7 nM
O=C(c1cccc(F)c1)N1CCC[C@@]2(CCN(c3ccccc3)C2)C1	inactive
Cc1ccc(CN2C(=O)CSc3ccc(C(=O)NCCN4CCOCC4)cc32)cc1	inconclusive: 1.1 nM
CCNC(=O)CCc1nc(-c2ccc(C(C)(C)C)cc2)no1	inconclusive: 1.1 nM
O=C1C2[C@@H](c3ccccc3)N[C@@H](c3ccccc3)C1[C@H](c1ccccc1)N[C@H]2c1ccccc1	inactive
CC(C)n1cnc2cc(NCc3nc4ccccc4n3C)ccc21	inconclusive: 1.2 nM
CN1CCN(S(=O)(=O)c2ccc(-c3ccccc3)cc2)CC1	inconclusive: 1.2 nM
O=C(NCCO)c1cc2ccccc2cc1O	inconclusive: 1.1 nM
CCOC(=O)N1CCN(C(=O)c2ccc3nc4cc(Cl)ccc4c(=O)n3c2)CC1	inconclusive: 1.2 nM
Clc1ccc(OCc2nn3c(-c4ccncc4)nnc3s2)cc1	inconclusive: 1.1 nM
C=C1C(=O)O[C@H]2C[C@@]3(C)CCCC(=C)[C@@H]3C[C@H]12	inconclusive: 1.7 nM
COc1cc(C2C(C(=O)c3ccco3)=C(O)C(=O)N2CCc2ccccc2)ccc1O (centres undefined)	inconclusive: 1.3 nM
Cc1ccc(C2C(=O)N(C3CCC(C)CC3)CC(=O)N2C2CC2)cc1 (centres undefined)	inconclusive: 1.3 nM
CC(=O)Nc1cc(-c2ccccc2)ccc1O	inconclusive: 1.5 nM
CCNc1ncc2nc(-c3cccs3)c(=O)n(CCc3ccccc3)c2n1	inactive
CSc1nc2cc(Cl)ccc2s1	inconclusive: 1.8 nM

Compound	max dye-equivalent concentration
COc1ccc(C(C)=O)cc1COC(=O)Cn1cnc2ccccc2c1=O	inactive
CCn1c(SCC(N)=O)nnc1-c1cc2c(C)nn(-c3ccccc3)c2s1	inconclusive: 1.4 nM
CCOc1ccc(C(C)(C)C)cc1S(=O)(=O)N1CCOCC1	inconclusive: 1.1 nM
Cc1cc2cc(CN(Cc3ccco3)C(=O)NCc3ccccc3)c(=O)[nH]c2cc1C	inconclusive: 1.1 nM
O=C(O)CCSc1nnc(-c2ccc3c(c2)OCO3)o1	inconclusive: 1.2 nM
Cc1cc2oc(=O)cc(CN3CCC(C)CC3)c2c(C)c1Cl	inconclusive: 1.3 nM
O=C(CCN1C(=O)c2ccccc2C1=O)NCCC1=CCCCC1	inconclusive: 1.7 nM
CCOC(=O)C1CCN(C(=O)CSc2ccccc2)CC1	inconclusive: 1.1 nM
O=C(Nc1ccn(Cc2ccc(F)cc2)n1)c1ccncc1	inconclusive: 1.1 nM
CC(NC(=O)Nc1nccs1)(C(F)(F)F)C(F)(F)F	inconclusive: 1.2 nM
COCCCn1c(SCC(=O)OC2CCCCC2)nnc1-c1cccs1	inconclusive: 1.2 nM
O=C(c1cc(C(F)(F)F)cc(C(F)(F)F)c1)N1CCC2(CCCN(c3ccncc3)C2)CC1	inactive
COCCN(CC(=O)Nc1cccc(C)c1)S(=O)(=O)c1ccc(S(=O)(=O)N2CCCC2)cc1	inconclusive: 1.6 nM
C=C1c2cccc(O)c2C(O)=C2C(=O)[C@@]3(O)C(O)=C(C(N)=O)C(=O)[C@@H](N(C)C)[C@@H]3[C@@H](O)[C@H]12	inactive
Cn1ncc(N=Cc2ccccc2O)c1C(=O)Nc1ccccc1	inactive
O=c1c2c3c(sc2nc2sc(C4CC4)nn12)CCCC3	inconclusive: 1.5 nM
CCOc1ccc(NC(=O)CN2C(=O)C3CC=CCC3C2=O)cc1 (centres undefined)	inconclusive: 1.4 nM
O=C1CC(c2ccco2)Cc2nc(N3CCN(Cc4ccc5c(c4)OCO5)CC3)ncc21 (centres undefined)	inconclusive: 2.4 nM
CC(C)Cn1c2c(c(O)c(C(=O)Nc3ncccc3O)c1=O)CCCC2	inconclusive: 1.3 nM
COc1ccccc1NC(=O)CCn1c(=O)sc2ccccc21	inconclusive: 1.3 nM
CC1CCCN(CCCNC(=O)c2coc3nc4ccccc4nc23)C1 (centres undefined)	inconclusive: 1.1 nM

Compound	max dye-equivalent concentration
C=CCC1c2cccc(C(=O)O)c2C(=O)N1c1ccc(F)cc1 (centres undefined)	inactive
O=C(Nc1cccc(OC(=O)c2ccco2)c1)c1ccco1	inconclusive: 1.7 nM
COCCNC(=O)C(c1ccc(C)o1)N(CC1CCCO1)C(=O)Cn1nnc2ccccc21 (centres undefined)	inconclusive: 1.2 nM
CCOC(=O)c1ccccc1NS(=O)(=O)c1ccccc1F	inconclusive: 1.3 nM
COc1cc2c(cc1O)CC[C@@H]1[C@@H]2CC[C@@]2(C)[C@H](O)CC[C@H]12	inactive
COc1cc2c(cc1OC)C(COc1ccc(F)cc1)N(C(=O)c1ccco1)CC2 (centres undefined)	inconclusive: 1.4 nM
C=C(C)CSc1nnc(-c2cc(OC)c(OC)c(OC)c2)n1N	inconclusive: 1.1 nM
COC(=O)C1=C(C)Nc2ncnn2C1c1ccccn1 (centres undefined)	inconclusive: 1.7 nM
COc1ccc(Nc2ccccc2)c(C)c1	inconclusive: 1.2 nM
CCOc1cc(C2C(C(=O)c3ccc(C)cc3)=C(C(=O)OC)Nc3nnnn32)ccc1O (centres undefined)	inconclusive: 1.1 nM
CC[C@@H]1OC(=O)[C@H](C)[C@H](O[C@@H]2C[C@](C)(OC)[C@H](O)[C@H](C)O2)[C@H](C)[C@H](O[C@@H]2O[C@@H](C)C[C@@H](N(C)C)[C@@H]2O)[C@](C)(O)C[C@H](C)[C@@H]2N[C@H](COCCOC)O[C@H]([C@@H]2C)[C@]1(C)O	inactive
Cn1c(Cn2c(=O)sc3ccccc32)nnc1SCc1ccccn1	inconclusive: 1.2 nM
COc1ccc(Nc2oc(-c3cccs3)nc2C#N)cc1	inconclusive: 1.4 nM
CCN(C1CCCCC1)S(=O)(=O)c1ccc(OC)c(C)c1	inconclusive: 1.6 nM
O=c1c2ccccc2nc(-c2ccccc2)n1Cc1ccco1	inconclusive: 1.4 nM
CCOC(=O)N1CCN(C(=O)C(C)n2nc(C)n3c(cc4sccc43)c2=O)CC1 (centres undefined)	inconclusive: 1.1 nM
Cc1cc(NC(=O)CSc2nnc(-c3ccco3)n2CC2CCCO2)no1 (centres undefined)	inconclusive: 1.4 nM
COc1ccc(OC)c(NC(=O)CSCC(=O)O)c1	inconclusive: 1.2 nM
COc1ccc(CNC(=O)COC(=O)c2c[nH]c(=O)[nH]c2=O)cc1OC	inconclusive: 2 nM
COc1cc(C(=O)N2CCC(c3nc(-c4cccnc4)no3)CC2)cc(OC)c1OC	inconclusive: 1.1 nM
CN1C[C@H](C(=O)N[C@]2(C)O[C@@]3(O)[C@H]4CCCN4C(=O)[C@@H](Cc4ccccc4)N3C2=O)C[C@H]2c3cccc4[nH]cc(c34)C[C@@H]21	inactive

Compound	max dye-equivalent concentration
O=C(Cn1c(=O)oc2ccccc21)N1CCN(c2ccccc2)CC1	inconclusive: 1.2 nM
CCOc1ccc(S(=O)(=O)n2nnc3ccccc32)cc1C(C)C	inconclusive: 1.1 nM
COC(=O)Cn1c(C)nc2c(sc3nc(C)cc(C)c32)c1=O	inconclusive: 1.4 nM
CCOC(=O)c1sc(C)c2c(=O)n(CC)nnc12	inconclusive: 1.6 nM
COc1ccc(C(=O)CSc2nnc(CNc3ccc(C)cc3C)n2Cc2ccco2)cc1	inconclusive: 1.8 nM
Cc1ccnc(NS(=O)(=O)c2ccc(N=CC3=C(O)CC(C)(C)CC3=O)cc2)n1	inconclusive: 1.5 nM
C/C(Cl)=C/Cn1c(=O)c2c(nc(Br)n2Cc2ccccc2)n(C)c1=O	inconclusive: 1.1 nM
COC(=O)C1(C(O)C(=O)c2ccc(C)cc2C)CCCCC1 (centres undefined)	inconclusive: 2.3 nM
COc1ccc(OC)c(C2C3CN(C(C)C)CC=C3C(C#N)=C(N)C2(C#N)C#N)c1 (centres undefined)	inactive
CC(=O)c1cccc(NC(=O)CN(c2ccccc2)S(C)(=O)=O)c1	inconclusive: 1.9 nM
CCOc1cccc(C(=O)Nc2cccc(-c3nnc(-c4ccc(C)cc4)o3)c2)c1	inconclusive: 2.6 nM
CCOC(=O)N1CCC(NS(=O)(=O)c2cc(Br)cc3c2N(C(=O)CC)CC3)CC1	inconclusive: 1.1 nM
COc1cc(N2C(=O)c3ccccc3C2=O)c(Cl)cc1C(=O)OCC(=O)NCc1ccco1	inactive
O=C(NCCN1CCN(c2ccccc2)CC1)c1cccc(Br)c1	inconclusive: 1.4 nM
O=C(CSC1=NCCS1)Nc1ccnc2ccccc12	inconclusive: 1.6 nM
COc1ccc(CCNC(=O)C2CCCN(Cc3nc(-c4ccccc4C)oc3C)C2)cc1OC (centres undefined)	inconclusive: 1.5 nM
OC1(c2cn(Cc3ccccc3)nn2)CCCCC1	inconclusive: 1.2 nM
COc1ccc(/C=N\NC(=O)O)cc1	inconclusive: 1.7 nM
COc1ccccc1-c1nnc2sc(-c3ccc(N(C)C)cc3)nn12	inconclusive: 1.3 nM
CC(C)(C)OC(=O)NCCc1nnc(SCc2ccccc2Cl)o1	inconclusive: 1.4 nM
O=C(O)COc1ccc2nsnc2c1Cl	inconclusive: 1.1 nM
